Results are given in words; binding and its absence hold for the method and conditions named. Binding seen in cells or lysates may run through a third protein. Some binding calls cover weakened binding; strength is not graded here. For part of these data: Sequences can lack the tags named with a protein.
Columns and labels:
[1] = biological target: GST fused to HPV18 E7 (GST-18E7) (human papillomavirus 18) (UniProt P06788); experiment: pull-down; only the target purified
[2] = biological target: T1, GST fused to HPV45 E7 (GST-45E7) (human papillomavirus 45) (UniProt P21736); experiment: pull-down; only the target purified
T1 sequence: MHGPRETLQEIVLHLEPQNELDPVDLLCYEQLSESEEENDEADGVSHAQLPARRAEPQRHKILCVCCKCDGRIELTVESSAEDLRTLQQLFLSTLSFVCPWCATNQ

Amino acid sequences for entries named in this document (tags omitted). A change or cut given only in a name is not applied to a line headed by its entry.
UniProt P06788: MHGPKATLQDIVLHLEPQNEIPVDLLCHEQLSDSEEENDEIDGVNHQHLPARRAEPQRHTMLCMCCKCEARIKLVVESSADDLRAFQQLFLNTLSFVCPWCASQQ
UniProt P03129: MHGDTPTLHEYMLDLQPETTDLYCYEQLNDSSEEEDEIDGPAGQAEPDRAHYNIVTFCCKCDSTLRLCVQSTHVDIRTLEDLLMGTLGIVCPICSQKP
UniProt P14618: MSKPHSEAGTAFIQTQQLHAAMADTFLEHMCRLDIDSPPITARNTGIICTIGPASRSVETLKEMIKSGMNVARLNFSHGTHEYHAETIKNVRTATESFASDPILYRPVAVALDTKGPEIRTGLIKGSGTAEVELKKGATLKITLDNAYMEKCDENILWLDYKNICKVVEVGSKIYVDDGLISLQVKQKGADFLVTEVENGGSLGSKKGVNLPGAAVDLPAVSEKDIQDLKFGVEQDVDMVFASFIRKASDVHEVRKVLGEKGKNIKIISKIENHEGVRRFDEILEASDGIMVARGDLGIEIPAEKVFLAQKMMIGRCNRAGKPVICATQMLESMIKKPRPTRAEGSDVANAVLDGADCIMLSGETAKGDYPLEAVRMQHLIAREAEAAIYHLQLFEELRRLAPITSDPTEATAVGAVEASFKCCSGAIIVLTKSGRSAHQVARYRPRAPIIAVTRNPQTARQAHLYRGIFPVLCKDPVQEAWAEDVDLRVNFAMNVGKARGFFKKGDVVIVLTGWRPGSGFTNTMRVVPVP

[3] = biological target: HPV16 E7 oncoprotein, endogenous in SiHa cells (human papillomavirus 16 (endogenous in SiHa)) (UniProt P03129); experiment: co-IP

| Substance | binding [1] | binding [2] | binding [3] |
| --- | --- | --- | --- |
| HA-tagged PKM2 (HA-PKM2) (from UniProt P14618 1-531) (enzyme) | binds | binds |  |
| Pyruvate kinase M2 (PKM2), endogenous in SiHa cells (from UniProt P14618-1 1-531) (enzyme) |  |  | binds |

— PMC8001101
